These are yes or no findings as the source states them, for the method shown. Some binding calls cover weakened binding; strength is not graded here.
Columns and labels:
[1] = molecular target: T1, TNFR1-Fas chimeric receptor (extracellular domain of TNFR1 and cytoplasmic domain of death receptor Fas) on mouse embryonic fibroblasts (human) (UniProt P19438+P25445); assay: saturation binding curve and Scatchard plot on receptor positive cells
[2] = molecular target: T1, TNFR1-Fas chimeric receptor (extracellular domain of TNFR1 and cytoplasmic domain of death receptor Fas) on mouse embryonic fibroblasts (human); assay: indirect immunofluorescence flow cytometry, FITC-labelled His-specific detection antibody

The chains behind the UniProt entries cited, without tags or fusion partners. Where a name states a change or a piece, a line headed by the entry shows the natural chain unless it says otherwise.
UniProt P19438: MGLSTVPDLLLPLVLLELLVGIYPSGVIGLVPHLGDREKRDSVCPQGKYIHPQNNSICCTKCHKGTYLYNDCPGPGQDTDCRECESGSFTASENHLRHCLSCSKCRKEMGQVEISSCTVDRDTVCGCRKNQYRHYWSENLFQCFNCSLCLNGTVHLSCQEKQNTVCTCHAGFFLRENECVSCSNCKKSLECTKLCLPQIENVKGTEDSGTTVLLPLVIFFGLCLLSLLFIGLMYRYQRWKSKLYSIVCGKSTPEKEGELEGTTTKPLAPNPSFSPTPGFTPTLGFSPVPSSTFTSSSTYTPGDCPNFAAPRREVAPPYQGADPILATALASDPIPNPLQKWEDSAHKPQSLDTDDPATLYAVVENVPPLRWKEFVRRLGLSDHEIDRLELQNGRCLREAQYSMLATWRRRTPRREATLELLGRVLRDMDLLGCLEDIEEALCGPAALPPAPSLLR
UniProt P25445: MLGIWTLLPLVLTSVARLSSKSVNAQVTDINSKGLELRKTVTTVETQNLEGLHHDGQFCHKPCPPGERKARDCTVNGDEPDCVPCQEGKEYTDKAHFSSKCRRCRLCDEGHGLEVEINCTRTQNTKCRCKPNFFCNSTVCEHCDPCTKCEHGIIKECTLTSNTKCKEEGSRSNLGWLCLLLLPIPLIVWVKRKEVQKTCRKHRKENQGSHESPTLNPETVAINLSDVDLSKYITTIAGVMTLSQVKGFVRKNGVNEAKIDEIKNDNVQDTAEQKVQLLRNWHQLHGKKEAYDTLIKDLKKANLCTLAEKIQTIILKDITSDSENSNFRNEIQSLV

B1: IZI-06.1 Fab (Fab, V domains shown)
VH: QVQLVQSGAEVKKPGSSVKVSCKASGYTFTDFYINWVRQAPGQGLEWIGEIYPYSGHAYYNEKFKARVTITADKSTSTAYMELSSLRSEDTAVYYCARWDFLDYWGQGTTVTVSS
VL: DIVMTQSPLSLPVTPGEPASISCRSSQSLLHSNGNTYLHWYLQKPGQSPQLLIYTVSNRFSGVPDRFSGSGSGTDFTLKISRVEAEDVGVYYCSQSTHVPYTFGGGTKVEIKR
modifications: 125I-labelled (chloramine T method) in the saturation binding study
notes: Fab expressed in the E. coli periplasm; the pelB leader is removed; also called humanized H398-Fab; Fab IZI-06.1; not shown: CH1 domain of the human immunoglobulin gamma1 heavy chain
binding [1]: binds | binding [2]: binds
